The assay addresses TbKIFC1 (C-terminal kinesin of Trypanosoma brucei) (T. brucei (endogenous in T. brucei cells)) (UniProt Q388B7). In words: proximity ligation; Duolink ligation assay with anti-TbKIFC1 and anti-APOL1 antibodies on T. brucei after 1-h incubation with 10 ug/ml rAPOL1; signal means proximity below 40 nm; only the binder purified.

By UniProt entry, the sequences of proteins in these tests, tags left out. Where a name states a change or a piece, a line headed by the entry shows the natural chain unless it says otherwise.
UniProt Q388B7: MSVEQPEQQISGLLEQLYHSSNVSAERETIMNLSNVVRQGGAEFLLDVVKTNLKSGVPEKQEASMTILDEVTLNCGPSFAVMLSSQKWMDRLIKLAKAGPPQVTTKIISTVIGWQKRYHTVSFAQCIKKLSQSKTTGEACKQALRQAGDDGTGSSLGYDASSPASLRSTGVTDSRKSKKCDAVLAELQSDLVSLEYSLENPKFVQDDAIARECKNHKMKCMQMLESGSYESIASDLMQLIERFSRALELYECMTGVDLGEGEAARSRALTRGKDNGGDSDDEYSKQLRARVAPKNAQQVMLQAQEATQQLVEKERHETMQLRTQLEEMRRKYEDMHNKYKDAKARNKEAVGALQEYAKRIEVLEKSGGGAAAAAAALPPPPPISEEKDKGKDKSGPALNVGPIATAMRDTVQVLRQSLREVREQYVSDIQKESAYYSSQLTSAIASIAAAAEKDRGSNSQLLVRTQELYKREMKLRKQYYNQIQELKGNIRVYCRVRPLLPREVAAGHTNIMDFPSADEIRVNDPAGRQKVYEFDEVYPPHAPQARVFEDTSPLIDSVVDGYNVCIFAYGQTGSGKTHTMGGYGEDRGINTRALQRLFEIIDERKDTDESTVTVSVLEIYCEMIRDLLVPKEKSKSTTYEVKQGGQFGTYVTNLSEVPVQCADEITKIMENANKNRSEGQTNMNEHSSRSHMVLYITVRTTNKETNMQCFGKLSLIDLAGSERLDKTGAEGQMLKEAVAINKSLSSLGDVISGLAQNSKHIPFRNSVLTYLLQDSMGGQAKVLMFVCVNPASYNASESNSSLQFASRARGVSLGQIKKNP

Results are given in words; binding and its absence hold for the method and conditions named. In cells and extracts the contact can be indirect. A result given as binding can be weak or reduced; the word gives no strength. Where a sequence is shown, tags or fusion partners need not be part of it.

B1: recombinant APOL1 (His6-tagged APOL1 E28-L398) (protein, UniProt O14791 28-398)
chain: EEAGARVQQNVPSGTDTGDPQSKPLGDWAAGTMDPESSIFIEDAIKYFKEKVSTQNLLLLLTDNEAWNGFVAAAELPRNEADELRKALDNLARQMIMKDKNWHDKGQQYRNWFLKEFPRLKSELEDNIRRLRALADGVQKVHKGTTIANVVSGSLSISSGILTLVGMGLAPFTEGGSLVLLEPGMELGITAALTGITSSTMDYGKKWWTQAQAHDLVIKSLDKLKEVREFLGENISNFLSLAGNTYQLTRGIGKDIRALRRARANLQSVPHASASRPRVTEPISAESGEQVERVNEPSILEMSRGVKLTDVAPVSFFLVLDVVYLVYESKHLHEGAKSETAEELKKVAQELEEKLNILNNNYKILQADQEL
Take B1: the binding entry is given as “binds”.

(Values after publication PMC4560804.)
